# In the supplement of paper PMC7666118:
# Amino acid sequences for entries named in this document (tags omitted). A change or cut given only in a name is not applied to a line headed by its entry.
# UniProt Q9NVV5: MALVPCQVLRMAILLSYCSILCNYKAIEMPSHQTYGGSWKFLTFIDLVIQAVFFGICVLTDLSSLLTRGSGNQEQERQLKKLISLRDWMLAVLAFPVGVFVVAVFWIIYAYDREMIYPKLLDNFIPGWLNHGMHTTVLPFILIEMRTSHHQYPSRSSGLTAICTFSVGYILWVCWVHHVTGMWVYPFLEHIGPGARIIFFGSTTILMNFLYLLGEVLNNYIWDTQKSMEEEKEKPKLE
# UniProt P55008: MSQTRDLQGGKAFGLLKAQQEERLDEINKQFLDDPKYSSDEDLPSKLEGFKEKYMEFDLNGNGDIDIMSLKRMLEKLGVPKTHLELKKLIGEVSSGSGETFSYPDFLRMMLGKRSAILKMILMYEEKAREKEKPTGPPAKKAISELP
# UniProt Q9UBL3, whole entry, looked up: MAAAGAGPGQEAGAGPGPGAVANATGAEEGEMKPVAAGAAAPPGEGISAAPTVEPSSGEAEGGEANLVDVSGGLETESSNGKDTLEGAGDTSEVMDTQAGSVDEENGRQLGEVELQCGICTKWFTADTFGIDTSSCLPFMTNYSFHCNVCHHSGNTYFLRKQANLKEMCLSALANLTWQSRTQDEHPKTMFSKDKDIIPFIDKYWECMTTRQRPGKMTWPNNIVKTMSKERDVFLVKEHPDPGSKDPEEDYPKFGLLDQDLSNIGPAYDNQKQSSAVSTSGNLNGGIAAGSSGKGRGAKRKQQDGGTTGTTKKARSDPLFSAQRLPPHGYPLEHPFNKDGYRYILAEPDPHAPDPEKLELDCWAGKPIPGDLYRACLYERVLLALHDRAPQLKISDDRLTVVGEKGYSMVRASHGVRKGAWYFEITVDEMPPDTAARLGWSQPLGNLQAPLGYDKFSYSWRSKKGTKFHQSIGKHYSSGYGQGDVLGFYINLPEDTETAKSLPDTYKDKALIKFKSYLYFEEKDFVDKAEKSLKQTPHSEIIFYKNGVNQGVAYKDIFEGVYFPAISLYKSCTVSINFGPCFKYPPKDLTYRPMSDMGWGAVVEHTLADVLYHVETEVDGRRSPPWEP
# UniProt O95376: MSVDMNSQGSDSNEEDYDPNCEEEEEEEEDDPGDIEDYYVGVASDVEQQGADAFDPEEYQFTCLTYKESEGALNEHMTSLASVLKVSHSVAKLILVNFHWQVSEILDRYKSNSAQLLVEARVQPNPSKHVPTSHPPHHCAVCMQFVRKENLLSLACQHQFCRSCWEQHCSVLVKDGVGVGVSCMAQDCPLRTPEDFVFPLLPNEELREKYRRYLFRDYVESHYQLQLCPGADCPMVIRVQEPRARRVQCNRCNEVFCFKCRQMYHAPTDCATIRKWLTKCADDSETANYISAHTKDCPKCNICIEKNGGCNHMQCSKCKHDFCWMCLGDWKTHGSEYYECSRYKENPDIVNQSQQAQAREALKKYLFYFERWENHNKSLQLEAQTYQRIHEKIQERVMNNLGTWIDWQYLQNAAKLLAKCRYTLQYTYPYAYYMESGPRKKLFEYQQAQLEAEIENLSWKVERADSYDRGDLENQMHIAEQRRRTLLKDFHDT
# UniProt Q12802: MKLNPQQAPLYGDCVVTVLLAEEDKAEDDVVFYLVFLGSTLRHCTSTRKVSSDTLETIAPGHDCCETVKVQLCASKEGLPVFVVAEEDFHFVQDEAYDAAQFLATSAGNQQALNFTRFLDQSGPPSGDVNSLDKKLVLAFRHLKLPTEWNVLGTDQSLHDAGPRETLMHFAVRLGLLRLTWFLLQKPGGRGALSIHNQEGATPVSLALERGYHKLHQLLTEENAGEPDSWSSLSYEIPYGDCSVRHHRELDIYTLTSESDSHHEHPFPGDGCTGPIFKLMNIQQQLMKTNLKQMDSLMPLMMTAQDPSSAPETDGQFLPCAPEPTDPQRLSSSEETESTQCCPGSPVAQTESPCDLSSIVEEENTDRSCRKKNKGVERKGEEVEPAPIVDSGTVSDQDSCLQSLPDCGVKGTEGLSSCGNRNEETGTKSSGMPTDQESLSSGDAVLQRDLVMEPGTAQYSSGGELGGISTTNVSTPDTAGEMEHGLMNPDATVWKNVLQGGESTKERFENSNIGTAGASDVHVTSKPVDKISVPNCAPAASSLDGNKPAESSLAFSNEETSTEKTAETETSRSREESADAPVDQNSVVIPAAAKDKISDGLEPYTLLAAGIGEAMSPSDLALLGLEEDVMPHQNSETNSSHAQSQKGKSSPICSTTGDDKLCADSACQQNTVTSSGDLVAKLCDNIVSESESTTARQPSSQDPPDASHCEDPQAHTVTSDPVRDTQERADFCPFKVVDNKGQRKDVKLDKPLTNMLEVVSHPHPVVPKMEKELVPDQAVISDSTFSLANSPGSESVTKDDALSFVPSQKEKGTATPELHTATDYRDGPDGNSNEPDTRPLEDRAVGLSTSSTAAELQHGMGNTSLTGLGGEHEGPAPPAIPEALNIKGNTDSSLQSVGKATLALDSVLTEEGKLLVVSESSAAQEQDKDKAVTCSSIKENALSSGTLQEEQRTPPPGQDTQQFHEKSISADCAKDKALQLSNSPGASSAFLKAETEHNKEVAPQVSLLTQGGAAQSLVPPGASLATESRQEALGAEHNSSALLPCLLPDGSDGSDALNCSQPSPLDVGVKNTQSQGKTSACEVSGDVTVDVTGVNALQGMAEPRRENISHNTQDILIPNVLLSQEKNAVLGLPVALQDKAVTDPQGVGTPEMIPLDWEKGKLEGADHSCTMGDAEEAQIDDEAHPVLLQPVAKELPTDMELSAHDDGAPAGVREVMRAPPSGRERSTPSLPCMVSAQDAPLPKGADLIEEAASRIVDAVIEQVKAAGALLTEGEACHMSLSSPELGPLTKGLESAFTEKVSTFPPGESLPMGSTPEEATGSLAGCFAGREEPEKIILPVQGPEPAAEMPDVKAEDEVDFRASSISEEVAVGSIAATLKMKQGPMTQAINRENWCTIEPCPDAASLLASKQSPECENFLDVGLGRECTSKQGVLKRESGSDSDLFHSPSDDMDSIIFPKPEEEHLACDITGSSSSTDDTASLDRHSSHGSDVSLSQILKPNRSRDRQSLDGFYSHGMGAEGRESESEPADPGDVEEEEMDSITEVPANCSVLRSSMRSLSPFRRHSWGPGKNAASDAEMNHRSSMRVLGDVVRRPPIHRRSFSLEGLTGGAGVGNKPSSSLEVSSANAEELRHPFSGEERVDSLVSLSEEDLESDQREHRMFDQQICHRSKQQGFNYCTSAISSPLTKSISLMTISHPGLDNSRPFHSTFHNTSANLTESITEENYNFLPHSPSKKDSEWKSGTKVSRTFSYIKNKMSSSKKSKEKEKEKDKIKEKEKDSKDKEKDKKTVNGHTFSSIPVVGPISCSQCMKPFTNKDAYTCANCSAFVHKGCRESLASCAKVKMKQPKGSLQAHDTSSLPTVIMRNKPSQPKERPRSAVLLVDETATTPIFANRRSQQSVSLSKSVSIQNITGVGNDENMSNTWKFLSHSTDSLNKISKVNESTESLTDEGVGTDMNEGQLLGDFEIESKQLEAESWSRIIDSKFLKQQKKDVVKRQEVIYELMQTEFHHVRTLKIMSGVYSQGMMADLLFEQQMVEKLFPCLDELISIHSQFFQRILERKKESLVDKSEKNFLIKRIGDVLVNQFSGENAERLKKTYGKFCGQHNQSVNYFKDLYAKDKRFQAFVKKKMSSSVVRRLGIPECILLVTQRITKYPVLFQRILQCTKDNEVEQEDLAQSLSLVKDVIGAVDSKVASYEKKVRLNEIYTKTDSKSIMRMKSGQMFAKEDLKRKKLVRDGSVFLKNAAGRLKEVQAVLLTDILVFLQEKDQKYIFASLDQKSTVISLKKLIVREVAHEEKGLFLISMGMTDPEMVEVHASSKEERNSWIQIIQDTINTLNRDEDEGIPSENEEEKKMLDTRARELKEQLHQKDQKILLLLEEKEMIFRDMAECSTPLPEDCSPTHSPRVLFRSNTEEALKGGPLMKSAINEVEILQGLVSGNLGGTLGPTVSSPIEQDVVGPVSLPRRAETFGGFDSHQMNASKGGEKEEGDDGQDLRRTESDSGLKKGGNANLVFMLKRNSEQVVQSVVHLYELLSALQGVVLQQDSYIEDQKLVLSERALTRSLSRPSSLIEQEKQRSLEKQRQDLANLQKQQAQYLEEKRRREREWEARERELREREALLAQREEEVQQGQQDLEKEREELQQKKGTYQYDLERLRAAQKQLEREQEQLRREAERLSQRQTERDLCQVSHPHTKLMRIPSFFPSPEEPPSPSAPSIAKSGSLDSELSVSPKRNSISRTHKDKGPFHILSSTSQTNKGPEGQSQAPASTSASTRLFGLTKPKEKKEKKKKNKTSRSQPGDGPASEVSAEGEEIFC
# UniProt O95782: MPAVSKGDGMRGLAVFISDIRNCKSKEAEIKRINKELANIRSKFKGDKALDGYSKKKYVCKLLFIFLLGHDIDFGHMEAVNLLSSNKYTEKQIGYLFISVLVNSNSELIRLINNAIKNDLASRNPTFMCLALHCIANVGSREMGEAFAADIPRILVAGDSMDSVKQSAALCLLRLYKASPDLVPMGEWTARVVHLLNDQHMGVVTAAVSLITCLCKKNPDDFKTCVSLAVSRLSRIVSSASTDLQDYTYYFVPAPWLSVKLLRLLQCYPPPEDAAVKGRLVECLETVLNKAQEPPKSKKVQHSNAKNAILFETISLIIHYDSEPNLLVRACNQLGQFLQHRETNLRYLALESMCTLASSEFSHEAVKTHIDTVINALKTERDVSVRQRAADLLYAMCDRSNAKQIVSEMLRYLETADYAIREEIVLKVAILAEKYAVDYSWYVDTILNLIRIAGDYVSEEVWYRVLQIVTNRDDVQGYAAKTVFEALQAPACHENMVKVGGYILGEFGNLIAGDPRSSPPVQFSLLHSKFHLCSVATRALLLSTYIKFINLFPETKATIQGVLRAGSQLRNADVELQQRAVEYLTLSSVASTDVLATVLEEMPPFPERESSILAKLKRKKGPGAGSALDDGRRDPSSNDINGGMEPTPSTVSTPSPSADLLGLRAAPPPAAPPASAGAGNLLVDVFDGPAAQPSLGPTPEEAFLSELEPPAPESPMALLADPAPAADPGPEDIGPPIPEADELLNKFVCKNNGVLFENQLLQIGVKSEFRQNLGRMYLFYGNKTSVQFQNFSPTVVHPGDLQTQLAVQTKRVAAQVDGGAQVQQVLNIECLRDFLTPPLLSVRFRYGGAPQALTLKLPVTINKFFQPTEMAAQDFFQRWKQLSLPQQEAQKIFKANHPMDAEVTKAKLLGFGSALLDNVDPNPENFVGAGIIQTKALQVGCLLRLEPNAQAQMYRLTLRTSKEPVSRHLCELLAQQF
# UniProt Q9UJX3, whole entry: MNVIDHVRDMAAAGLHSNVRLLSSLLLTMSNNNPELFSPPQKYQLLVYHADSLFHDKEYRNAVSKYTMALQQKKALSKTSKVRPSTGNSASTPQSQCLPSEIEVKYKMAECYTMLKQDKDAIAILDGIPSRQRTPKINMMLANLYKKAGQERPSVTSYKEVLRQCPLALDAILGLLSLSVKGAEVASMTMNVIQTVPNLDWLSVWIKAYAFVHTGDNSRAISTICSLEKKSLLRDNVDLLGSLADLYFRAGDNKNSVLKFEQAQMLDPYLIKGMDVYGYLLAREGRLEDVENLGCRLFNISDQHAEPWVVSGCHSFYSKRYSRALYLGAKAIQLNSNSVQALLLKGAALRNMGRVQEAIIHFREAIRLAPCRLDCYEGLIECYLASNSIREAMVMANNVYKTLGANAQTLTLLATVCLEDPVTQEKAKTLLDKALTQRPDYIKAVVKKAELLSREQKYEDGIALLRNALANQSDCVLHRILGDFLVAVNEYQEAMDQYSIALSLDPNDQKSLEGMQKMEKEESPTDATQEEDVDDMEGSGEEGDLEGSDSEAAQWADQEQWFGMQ
# UniProt Q7Z2E3: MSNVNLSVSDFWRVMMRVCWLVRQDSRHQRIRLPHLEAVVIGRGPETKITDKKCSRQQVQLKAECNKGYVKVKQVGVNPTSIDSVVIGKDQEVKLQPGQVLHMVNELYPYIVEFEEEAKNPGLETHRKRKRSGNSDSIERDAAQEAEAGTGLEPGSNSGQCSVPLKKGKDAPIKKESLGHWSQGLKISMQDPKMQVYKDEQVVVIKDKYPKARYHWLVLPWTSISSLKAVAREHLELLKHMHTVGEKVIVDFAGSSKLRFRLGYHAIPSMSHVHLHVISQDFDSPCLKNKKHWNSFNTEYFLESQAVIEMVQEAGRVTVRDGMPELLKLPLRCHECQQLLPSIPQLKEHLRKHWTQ
# UniProt Q9NT62, whole entry: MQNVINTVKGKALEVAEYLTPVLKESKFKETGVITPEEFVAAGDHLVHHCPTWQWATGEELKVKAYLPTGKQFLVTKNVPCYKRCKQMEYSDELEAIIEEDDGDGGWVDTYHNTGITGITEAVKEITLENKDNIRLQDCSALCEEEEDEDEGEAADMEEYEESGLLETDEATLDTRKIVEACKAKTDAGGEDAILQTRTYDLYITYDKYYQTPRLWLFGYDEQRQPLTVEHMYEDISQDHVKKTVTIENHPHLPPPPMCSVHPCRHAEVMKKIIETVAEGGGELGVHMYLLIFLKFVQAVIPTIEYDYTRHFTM
# This is one part of the list.
# Compound: COc1ccc(Cn2ccc3cc(C)c(C(=O)NO)cc32)cc1
# Assay: dose-dependent thermal stabilisation call (2D-TPP, DLPTP, 10% FDR) (binary (1 = stabilised)); higher = stabilised by the compound
# Conditions: system: HL-60 intact cells; concentration range 0.04-10 µM
# Protocol: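 2D thermal proteome profiling in intact HL-60 cells treated with BRD-3811 (0, 0.04, 0.29, 2, 10 uM) for 90 min at 37 C, then heated 3 min at one of 12 temperatures (42-63.9 C). Soluble protein was quantified by TMT10 MS. The value is the DLPTP call of the paper: dose-dependent thermal stabilisation over all temperatures at 10% FDR (F-test of a dose-response against a flat model); one experiment, one call per tested protein.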
row,Target,dose-dependent thermal stabilisation call
1,AGPAT2 (UniProt O15120),inactive: 0
2,AP2A2 (UniProt O94973),inactive: 0
3,AP2M1 (UniProt Q96CW1),inactive: 0
4,AIG1 (UniProt Q9NVV5),inactive: 0
5,ANLN (UniProt Q9NQW6),inactive: 0
6,AGXT2L2 (UniProt Q8IUZ5),inactive: 0
7,ALKBH3 (UniProt Q96Q83),inactive: 0
8,ATG2B (UniProt Q96BY7),inactive: 0
9,AIF1 (UniProt P55008),inactive: 0
10,ALDH16A1 (UniProt Q8IZ83),inactive: 0
11,APH1A (UniProt Q96BI3),inactive: 0
12,ARSB (UniProt P15848),inactive: 0
13,ATAD3B (UniProt Q5T9A4),inactive: 0
14,ARL6IP6 (UniProt Q8N6S5),inactive: 0
15,ASH2L (UniProt Q9UBL3),inactive: 0
16,ALDOC (UniProt P09972),inactive: 0
17,AKIRIN2 (UniProt Q53H80),inactive: 0
18,AHCYL2 (UniProt Q96HN2),inactive: 0

row,Target,dose-dependent thermal stabilisation call
1,AKAP9 (UniProt Q99996),inactive: 0
2,ARGLU1 (UniProt Q9NWB6),inactive: 0
3,ARIH2 (UniProt O95376),inactive: 0
4,AKAP13 (UniProt Q12802),inactive: 0
5,ARHGEF2 (UniProt Q92974),inactive: 0
6,ARPP-19,inactive: 0
7,AFF4 (UniProt Q9UHB7),inactive: 0
8,AP2A1 (UniProt O95782),inactive: 0
9,APBB1IP (UniProt Q7Z5R6),inactive: 0
10,ASXL1 (UniProt Q8IXJ9),inactive: 0
11,APOBEC3C (UniProt Q9NRW3),inactive: 0
12,ANAPC7 (UniProt Q9UJX3),inactive: 0
13,AOAH (UniProt P28039),inactive: 0
14,AP1B1 (UniProt Q10567),inactive: 0
15,AKNA (UniProt Q7Z591),inactive: 0
16,APTX (UniProt Q7Z2E3),inactive: 0
17,ATG3 (UniProt Q9NT62),inactive: 0
18,ARSA (UniProt P15289),inactive: 0

# Another view of some results above.
row	Target	dose-dependent thermal stabilisation call
6	AGXT2L2 (UniProt Q8IUZ5)	inactive: 0
12	ARSB (UniProt P15848)	inactive: 0
